Test results from patent publication US5366983A, “Use of quaternary ammonium compounds to remove salmonella contamination from meat products” (The Board of Trustees of The University of Arkansas, priority 1992, dated 1994).
Several values for one entry are separate records, joined by “and”; a condition that tells them apart may be missing. Identical values can stand only once.

Tests used:
[1] = system: Salmonella typhimurium ATCC 14028; test: Minimum growth inhibitory concentration, macrodilution; type: cell-based; settings: Mueler Hinton broth, macrodilution (NCCLS)
Protocol: Minimum growth inhibitory concentrations (MICs) of quaternary ammonium compounds and Na2 -EDTA for Salmonella were determined using Mueler Hinton broth (BBL Microbiology system, Cockeysville, Md.) and by the macrodilution method established by the National Committee for Clinical Laboratory Standards (NCCLS). Escherichia coli ATCC 25922 and Staphylococcus aureus ATCC 29213 were included in each assay as reference strains.

[2] = system: Salmonella typhimurium ATCC 14028; test: Effect on viability of Salmonella in suspension (Tables D-1 to D-3); type: cell-based; settings: Salmonella enterica, read-out: EC50 (±SD), effect on viability in suspension
Protocol: EC50 values for four of the compounds were calculated from the bactericidal activity of the compounds as a function of molar concentration by a nonlinear regression algorithm.
In addition to the quaternary ammonium compounds, the antimicrobial activities of chelating agents Na2 -EDTA and EGTA were investigated. Na2 -EDTA was purchased from the Sigma Chemical Company (St. Louis, Mo.). Na2 -EDTA was dissolved in 0.04 M PPB prior to the assay and further dilutions were made in the same buffer.
EGTA was purchased from the Aldrich Chemical Company (Milwaukee, Wis.). EGTA was dissolved in 0.04 M PPB according to the procedure described by Harafuji and Ogawa (J. Biochem. 87:1305-1312 (1980)). After heating EGTA for 15 minutes at 80° C., the pH was adjusted to 7.0 by addition of NaOH. EGTA was filter-sterilized using a 0.2 μm Acro disc filter (Gelman Sciences; Ann Arbor, Mich.) prior to the assay. Further dilutions were made in sterile PPB.

[3] = system: Salmonella typhimurium TA98; test: Salmonella reversion assay, TA98; settings: TA98, absence of S9
Protocol: (§1) Test strains TA98 and TA100 were obtained from Bruce N. Ames (University of California, Berkley, Calif.). Mutagenicities were determined both in the absence of and in the presence of a mammalian liver S9 activating system. S9 is the 9000×g supernatant prepared from liver homogenates from Aroclor 1254 stimulated male Sprague Dawley rats. The S9 was purchased from Molecular Toxicology, Inc. (Anapolis, Md.).
(§2) Bacterial broth cultures were grown overnight at 37° with shaking in Oxoid Broth #2. For assays in the absence of S9, a 0.5 ml aliquot of 100 mM Sodium Phosphate Buffer, pH 7.4, was added to sterile 13×100 mm capped culture tubes. For assays in the presence of S9, a 0.5 ml aliquot of 10% S9 mix was added. The S9 mix consisted of 8 mM magnesium chloride, 33 mM potassium chloride, 5 mM glucose-6-phosphate, 4 mM NADP, 100 mM sodium phosphate, pH 7.4 and S9 in a concentration of approximately 1.46 mg protein/ml.
(§3) The culture tubes were placed in an ice bath and 0.1 ml of the bacterial suspension and 0.1 ml of a DMSO solution of the test compound were added. The mixture was vortexed gently and incubated at 37° for 20 minutes with shaking in a water bath. […] The revertant (mutant) colonies were counted and the background lawn was examined on all plates. […]

[4] = system: Salmonella typhimurium TA100; test: Salmonella reversion assay, TA100; settings: TA100, absence of S9
Protocol: as §1, §2, §3

[5] = system: Salmonella typhimurium ATCC 14028 attached to human buccal epithelial cells; test: microbe, parasite or virus in culture; type: cell-based; settings: Salmonella enterica, Epithelial cell
Protocol: Additional studies on the detachment of Salmonella typhimurium from human buccal epithelial cells were conducted. In this study, CPC, DPC, and HTMAB, TTMAB DTMAB, were evaluated.
S. typhimurium ATCC 14028 was grown in nutrient broth (BBL Microbiology system, Cockeysville, Md.) for 16 hours at 37° C. The cells were centrifuged and washed twice with 0.008 M phosphate buffered saline (PBS, at pH 7.2) at 4500 rpm for 10 minutes. The last suspension was diluted in PBS to obtain a cell concentration 0.5 to 1×10^9 cells/ml using spectrophotometric measurement. Human epithelial cells were obtained by swabbing the buccal surface of a healthy, nonsmoking donor. […] The number of living cells was estimated and the suspension was diluted to 0.5 to 1×10^5 cells/ml.
The suspension of the human buccal cells was mixed with an equal volume of the bacterial suspension (3.0 ml), or PBS (0.8 ml) in 10 ml Erlenmeyer flasks. Contact was allowed for 1.5 hours at 35° C. under agitation. After incubation, 1.0 ml of each suspension was transferred into an Eppendorff vial, centrifuged at 3000 rpm for 10 minutes, and washed with PBS. […]
EC50 represents the inverse measurement of the potency of a compound. EC50 values were determined by a nonlinear regression of the detachment effect versus the cationic surfactant concentration data from Table A-3.

adherent S. typhimurium [6] = settings: 50 μg/ml
[7] = system: Salmonella attachment to human buccal epithelial cells; test: microbe, parasite or virus in culture; settings: Epithelial cell, read-out: contamination prevented
adherent S. typhimurium [8] = test: microbe, parasite or virus in culture; settings: Salmonella enterica, 10 min, read-out: adherent cells inactivated

Q: For `CCCCCCCCCCCCCCCC[n+]1ccccc1` [CPC, cetylpyridinium chloride], which MIC [1] is on record?
A: 40 µg/mL and 50 µg/mL

Q: What about the MIC ([1]; Salmonella enterica) of the same molecule?
A: 64 µg/mL

Q: What about the EC50 [2] of the same molecule?
A: 42.7 ± 0.3 µM

Q: And the “concentration producing a bactericidal response” value [3]?
A: above 10 μg/plate

Q: What about the “concentration producing a bactericidal response” value [4] of the same molecule?
A: above 10 μg/plate

Q: What about the EC50 ([5]; read-out: EC50 (±SD), detachment) of the same molecule?
A: 18.1 ± 3.6 µM

Q: And the minimal effective concentration ([5]; read-out: active concentration, detachment)?
A: 5 µg/mL

Q: And the “decrease in the number of Salmonella microcolonies” value (adherent S. typhimurium [6])?
A: 31/2

Q: And the inhibition at 10 µg/mL [7]?
A: ~65%

Q: And the killing at 50 µg/mL (adherent S. typhimurium [8])?
A: 99.8%
